The campaign covered roughly 350,000 compounds. About 220 (0.063%) were called active. Inconclusive results, whose numbers are uncertain, are shown with a selection of clear calls. The call rests on the fitted dose curve; in most records, active means well fitted activation curve with a large enough effect; inconclusive means small, poorly fitted or top-dose-only effect; inactive means no such curve, though single readings can be large or run the other way. Where the call is inconclusive, the potency comes from a doubtful curve fit.
Experiment: qHTS for Activators of Integrin-Mediated Alleviation for Muscular Dystrophy; further: nearly all actives have a fitted effect of over 60% in size
Conditions: alpha7betagal myoblasts, beta-gal FDG fluorescence, 48 h; series mostly up to 38.3 µM
How it was run: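 Alpha7betagal+/- myoblasts (passage 13) were plated 16-24 hr, then exposed to compounds (1:260 dilution of DMSO stock) for 48 hours at 37C. After MPER lysis, β-galactosidase reporter activity was read as FDG fluorescence (ex 480/em 540) after 30 minutes.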
Potency means the concentration at half of the fitted maximal effect.

SMILES	Potency
O=C(Oc1ccccc1)N1CCN(C(=O)c2ccco2)CC1	inactive
Cc1ccccc1N1CCN(C2CCCN(C(=O)CN3CCCC3=O)C2)CC1 (centres undefined)	inconclusive: 8.91 µM [activator, partial curve, poor fit]
Cc1ccccc1OCC(=O)NN1C(=O)C2C3C=CC(O3)C2C1=O (centres undefined)	inconclusive: 28.2 µM [activator, single point]
Cn1c(=O)c(-c2ccccc2)c(O)c2ccccc21	inconclusive: 11.2 µM [activator, partial curve, poor fit]
COc1cc(C#CC#CCN2CCCCC2)ccc1O	inactive
CC(C)c1ccc(NC(=S)N2CCN(S(=O)(=O)c3ccccc3)CC2)cc1	inactive
CCN(CCC(=O)Nc1cc([N+](=O)[O-])ccc1OC)Cc1ccccc1	inactive
COc1cc(CNCCN(C)C)c(Br)cc1OC1CCCC1	inconclusive: 5.01 µM [activator, single point]
Nn1cnc2cc3ccccc3cc2c1=O	inconclusive: 1.78 µM [activator, single point]
CC(=O)Nc1ccc(C(=O)OCC(=O)N2CCC(Cc3ccccc3)CC2)cc1	inconclusive: 22.4 µM [activator, partial curve, poor fit]
OCC1(CCOc2ccccc2)CCN(CC2=Cc3cc(Cl)ccc3OC2)CC1	inconclusive: 1.78 µM [activator, single point]
CCSc1nnc(N2C(=O)C(O)=C(C(=O)c3ccco3)C2c2cccc(OC)c2)s1 (centres undefined)	inconclusive: 1 µM [activator, full curve, poor fit]
CC(=O)n1cc(C(C[N+](=O)[O-])SCCN)c2ccccc21 (centres undefined)	inactive
Cc1sc2ncn(CC(=O)N3CCCCC3)c(=O)c2c1C	inconclusive: 3.16 µM [activator, partial curve, poor fit]
CCCCC(NC(=O)Cc1c(C)c2cc3c(C)c(C)oc3c(C)c2oc1=O)C(=O)O (centres undefined)	inconclusive: 14.1 µM [activator, single point]
O=c1[nH]c(-c2ccc(Cl)cc2)nc(=S)[nH]1	inconclusive: 1.78 µM [activator, partial curve, poor fit]
OC(COc1ccccc1F)CN1CCC(Cc2ccccc2)CC1 (centres undefined)	inconclusive: 3.16 µM [activator, single point]
CC(=O)C1=C(O)C(=O)N(c2cccnc2)C1c1cccc([N+](=O)[O-])c1 (centres undefined)	inconclusive: 3.16 µM [activator, partial curve, poor fit]
Clc1ccc(-c2ccc(CNCC3CCCO3)o2)cc1 (centres undefined)	inconclusive: 3.55 µM [activator, partial curve, poor fit]

Molecules above with two or more sulfur atoms, in the order listed:
SMILES	Potency
CC(C)c1ccc(NC(=S)N2CCN(S(=O)(=O)c3ccccc3)CC2)cc1	inactive
CCSc1nnc(N2C(=O)C(O)=C(C(=O)c3ccco3)C2c2cccc(OC)c2)s1 (centres undefined)	inconclusive: 1 µM [activator, full curve, poor fit]

Source: PubChem BioAssay AID624291 (National Center for Advancing Translational Sciences (NCATS), 2012)
